Primary screen of a compound library

Measurements from “University of Dundee, Small-Polar-MMV Screening Library” (2021), ChEMBL document CHEMBL3988442.

Results are given as percent effect.
The record does not define 0% and 100%; most values in the screen are far below 50% and negative numbers occur (in some assays of this library far below -100).
This is an unselected part of the compounds tested.
A dash means the value is not listed here; it may have been measured.

Mtb growth Cornell: 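Whole-cell assay for inhibitors of Mycobacterium tuberculosis growth, labelled Cornell in the record; the read-out is not stated. The concentration is filed as 10 mM, unlikely as a test dose, so the dose is not known. The record gives no direction; compounds strong in two other growth screens of this library score well above the rest, so higher reads as stronger inhibition. Size under these conditions: about 53,000 compounds, about 900 of them at 50% or above in at least one test.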
Mtb heat-shock: 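Assay on Mycobacterium tuberculosis, filed only as a heat shock assay from Cornell; the read-out is not stated. The concentration is filed as 10 mM, unlikely as a test dose, so the dose is not known. Higher reads as stronger inhibition (inferred: compounds with an IC50 in retests scored well above the rest). Size under these conditions: about 69,000 compounds, about 930 of them at 50% or above in at least one test.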

SMILES: O=C(O)C(F)(F)F.[H][C@@]12C[C@@H](C)O[C@]1([H])CN(C(=O)c1cc(C)nn1CC)C2
Mtb growth Cornell: 11.95%
Mtb heat-shock: 9.338%

SMILES: Cc1csc2ncc(-c3ccnc(N4CCCN(C)CC4)n3)c(=O)n12
Mtb growth Cornell: 9.18%
Mtb heat-shock: 1.088%

SMILES: c1cc2c(c(-c3cc(N4CCOCC4)ncn3)c1)CCNC2
Mtb growth Cornell: 13.34%
Mtb heat-shock: -4.879%

SMILES: O=C(c1ccc(=O)[nH]n1)N1CCCC(O)(CN2CCC(F)(F)CC2)CC1 (stereo not shown)
Mtb growth Cornell: -7.338%
Mtb heat-shock: 17.82%

SMILES: O=C(CNC(=O)N1CCN(c2cccc(Cl)c2)CC1)Nc1ccccn1
Mtb growth Cornell: 29.84%
Mtb heat-shock: -0.05341%

SMILES: c1ccc(-n2ccnc2)c(CNCC2CNc3ccnn3C2)c1 (stereo not shown)
Mtb growth Cornell: -29.5%
Mtb heat-shock: 8.926%

SMILES: COc1cc(CC(=O)Nc2cccc(C(=O)N(C)C)n2)ccc1C
Mtb growth Cornell: 36.04%
Mtb heat-shock: 14.74%

SMILES: O=c1n(Cc2cccc(C(F)(F)F)c2)nc2ncccn12
Mtb growth Cornell: -33.25%
Mtb heat-shock: -7.872%

SMILES: CN1CCCCC12CCN(c1nncs1)C2 (stereo not shown)
Mtb growth Cornell: 8.782%
Mtb heat-shock: 1.951%

SMILES: Cc1ncccc1C(=O)NC1(c2cccc(F)c2)CCOCC1
Mtb heat-shock: -6.027%

SMILES: O=C(c1cc(C2CCCC2)no1)N1CC(O)C1
Mtb growth Cornell: 18.4%
Mtb heat-shock: 15.04%

SMILES: COCCCN1CCN(c2ncnc3nc(C)cc(C)c23)CC1
Mtb growth Cornell: -16.18%
Mtb heat-shock: -17.92%

SMILES: O=C(O)C(F)(F)F.[H][C@@]12OCCN(C(=O)C3CCOCC3)[C@@]1([H])CC[C@H]2Oc1ccccn1
Mtb growth Cornell: -30.09%
Mtb heat-shock: -18.9%

SMILES: CC(C)c1cc(CN2CCN(c3cccnc3)CC2)n(C)n1
Mtb growth Cornell: 13.06%
Mtb heat-shock: -17.55%

SMILES: CCOc1c(Br)cc(CNCCc2nnc3n2CCCCC3)cc1OC.Cl
Mtb growth Cornell: 1.059%
Mtb heat-shock: -3.758%

SMILES: CS(=O)(=O)Cc1ccc(Cl)c(NCc2noc(C3CC3)n2)c1
Mtb growth Cornell: 6.247%
Mtb heat-shock: 5.128%

SMILES: COc1cccc(N2CCN(C(=O)C(OC)c3ccccc3)CC2=O)c1 (stereo not shown)
Mtb growth Cornell: -61.2%
Mtb heat-shock: 14.27%

SMILES: CNC(=O)c1cnn2c(C3CCCN3)ccnc12 (stereo not shown)
Mtb growth Cornell: -26.66%
Mtb heat-shock: -4.671%

SMILES: O=C(O)C(F)(F)F.[H][C@@]12CC(COCc3cccnc3)C[C@@]1([H])N(C(=O)N(C)C)CCO2 (stereo partly shown)
Mtb growth Cornell: -4.286%
Mtb heat-shock: 17.51%

SMILES: CN(Cc1cnn(C)c1)C(=O)NCCc1ccc2c(c1)OCO2
Mtb heat-shock: 18.38%

SMILES: O=C(c1ccnc(N2CCOC(C(F)(F)F)C2)c1)N1CCOCC1 (stereo not shown)
Mtb growth Cornell: 3.103%
Mtb heat-shock: 7.281%

SMILES: CC(C)(C)c1cccc(OCC(=O)NS(=O)(=O)c2cccnc2)c1
Mtb heat-shock: -34.4%

SMILES: Cc1ccc(OCC(C)NS(C)(=O)=O)cc1C (stereo not shown)
Mtb growth Cornell: -20.38%
Mtb heat-shock: 7.404%

SMILES: CC(Cn1cncn1)NCCN1CCc2ccccc2C1 (stereo not shown)
Mtb growth Cornell: -43.92%
Mtb heat-shock: 6.598%

SMILES: Cl.FC(F)(F)c1nc(C2CCCNC2)no1 (stereo not shown)
Mtb growth Cornell: 40.97%
Mtb heat-shock: -10.11%

SMILES: CN(C)c1cc(CNC(=O)c2ccc(O)nc2)ccn1
Mtb heat-shock: -9.734%

SMILES: O=C(O)C(F)(F)F.[H][C@@]12COC[C@]1(CNS(C)(=O)=O)CN(CCc1ccccc1)C2
Mtb growth Cornell: 3.352%
Mtb heat-shock: -28.98%

SMILES: CCc1nc(CNc2nc3c(s2)c(C)nn3C)cs1
Mtb growth Cornell: 82.51%
Mtb heat-shock: 18.19%

SMILES: [H][C@@]12CCCC[C@]1(O)CCN(C(=O)c1cccc3c1ccn3C)C2
Mtb growth Cornell: 24.08%
Mtb heat-shock: 14.05%

SMILES: COc1ccc(CC(=O)N2CCCC(n3nc(C)cc3C)C2)cc1F (stereo not shown)
Mtb heat-shock: -16.7%

SMILES: Cc1oc(C(=O)O)cc1S(=O)(=O)Nc1cc(Cl)ccc1F
Mtb growth Cornell: 18.89%
Mtb heat-shock: 1.968%

SMILES: NCC1CN(c2nc(-c3ccccc3)nc3c2CCNCC3)CCO1 (stereo not shown)
Mtb growth Cornell: 46.7%
Mtb heat-shock: 43.48%

SMILES: CC(C)(C)CNC(=O)CNC(=O)C1CC1
Mtb growth Cornell: 18.54%
Mtb heat-shock: 11.47%

SMILES: CCn1nc(C)c(CCNC(=O)C2CCCN(C(=O)COC)C2)c1C (stereo not shown)
Mtb growth Cornell: -5.894%
Mtb heat-shock: -23.84%

SMILES: CCOCC1CCN(C(=O)Nc2ccc3c(c2)CCCO3)C1 (stereo not shown)
Mtb growth Cornell: -16.01%
Mtb heat-shock: 22.76%

SMILES: Cc1nc(CNC2CCN(Cc3ccccc3)C2)sc1C (stereo not shown)
Mtb growth Cornell: 5.497%
Mtb heat-shock: 24.39%

SMILES: CC(C)CCN1CC2(CCCN(C(=O)c3cscn3)C2)CCC1=O (stereo not shown)
Mtb growth Cornell: -47.78%
Mtb heat-shock: 19.42%

SMILES: CCc1nccn1CCC(=O)N1CC[C@@H](c2ccc(F)cc2)[C@H](O)C1
Mtb growth Cornell: -11.12%
Mtb heat-shock: -21.89%

SMILES: CCCNC(=O)C1(Cc2cc(-c3ccccc3)no2)CCN(C(C)=O)C1 (stereo not shown)
Mtb growth Cornell: -18.98%
Mtb heat-shock: -7.416%

SMILES: O=C(NCCc1nncn1C1CC1)C1(c2ccccc2)CCC1
Mtb growth Cornell: -1.545%
Mtb heat-shock: -8.842%

SMILES: CNC(=O)C(C)(C)N1CCC[C@H]1C(=O)NC(C)(C)C
Mtb heat-shock: -16.75%

SMILES: [H][C@@]12CN(Cc3nccn3C)C[C@]1([H])OCCN2c1ncccn1
Mtb growth Cornell: -25.32%
Mtb heat-shock: -3.253%

SMILES: Cc1ccc(F)c(S(=O)(=O)NCc2cccc(CS(C)(=O)=O)c2)c1
Mtb growth Cornell: 22.13%
Mtb heat-shock: -4.314%

SMILES: CN1CC(=O)N(c2ccsc2)CC12CCN(C(=O)Nc1ccccc1)C2.O=C(O)C(F)(F)F (stereo not shown)
Mtb growth Cornell: 14.53%
Mtb heat-shock: -18.81%

The last 5 entries again:

| SMILES | Mtb growth Cornell | Mtb heat-shock |
|---|---|---|
| `O=C(NCCc1nncn1C1CC1)C1(c2ccccc2)CCC1` | -1.545% | -8.842% |
| `CNC(=O)C(C)(C)N1CCC[C@H]1C(=O)NC(C)(C)C` | - | -16.75% |
| `[H][C@@]12CN(Cc3nccn3C)C[C@]1([H])OCCN2c1ncccn1` | -25.32% | -3.253% |
| `Cc1ccc(F)c(S(=O)(=O)NCc2cccc(CS(C)(=O)=O)c2)c1` | 22.13% | -4.314% |
| `CN1CC(=O)N(c2ccsc2)CC12CCN(C(=O)Nc1ccccc1)C2.O=C(O)C(F)(F)F` (stereo not shown) | 14.53% | -18.81% |